Experimental data taken from ChEMBL document CHEMBL4613261, “Metabolic and Pharmaceutical Aspects of Fluorinated Compounds” (J Med Chem, 2020).
In brackets after ≈: the same amount, converted by molar mass.

Assay: Aqueous solubility of the compound in pH 6.8 buffer

Molecule `Nc1nc2ccc(OC(F)(F)F)cc2s1` [RILUZOLE] has a solubility of 986 µM (≈ 231 µg/mL).
